Results as given in PMC8828718.
No constants are given. Whether binding was seen depends on the method and setting. Binding seen in cells or lysates may run through a third protein. Binding calls can cover weak binding; strength is not graded here. Sequences can lack the tags named with a protein.

T1: Polo.Flag (Drosophila) (UniProt P52304)
T1 sequence: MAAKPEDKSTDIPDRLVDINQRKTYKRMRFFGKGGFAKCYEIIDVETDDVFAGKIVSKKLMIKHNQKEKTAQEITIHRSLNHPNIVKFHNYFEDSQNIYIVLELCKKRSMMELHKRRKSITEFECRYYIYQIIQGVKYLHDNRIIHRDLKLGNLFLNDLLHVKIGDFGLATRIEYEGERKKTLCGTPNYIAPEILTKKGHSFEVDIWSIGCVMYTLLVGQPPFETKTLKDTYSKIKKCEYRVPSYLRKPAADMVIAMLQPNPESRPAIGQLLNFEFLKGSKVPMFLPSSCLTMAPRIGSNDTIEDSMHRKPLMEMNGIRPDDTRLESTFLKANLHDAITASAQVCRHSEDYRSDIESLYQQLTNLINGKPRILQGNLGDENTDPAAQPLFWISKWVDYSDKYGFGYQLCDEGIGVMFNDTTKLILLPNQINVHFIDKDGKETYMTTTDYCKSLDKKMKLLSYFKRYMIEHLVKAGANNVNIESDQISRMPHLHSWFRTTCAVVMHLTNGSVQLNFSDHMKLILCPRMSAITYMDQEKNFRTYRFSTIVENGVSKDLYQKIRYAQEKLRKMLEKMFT


Legend:
Polo.Flag (Drosophila) = molecular target: T1, Polo.Flag (Drosophila); test: co-IP; reciprocal immunoprecipitation from lysates of S2 cells transfected with Bsd or Bsd.Q545* and Polo; IP with anti-FLAG or anti-Myc, blot with anti-Myc or anti-FLAG
[1] = molecular target: Bsd.Myc (full-length Back seat driver) (Drosophila); test: co-IP; immunoprecipitation screen in S2 cells transfected with Bsd and BDGP Flag-HA (FMO) plasmids, CuSO4 induction; IP with anti-FLAG or anti-Myc, Dynabeads, IP buffer with 1% NP40

Row | Molecule | binding (Polo.Flag (Drosophila)) | binding [1]
1 | Bsd.Myc (full-length Back seat driver) (Drosophila) (enzyme) | binds | 
2 | Yp3, Flag-HA C-terminal fusion (BDGP FMO11010) (protein, UniProt P06607 20-420) SKDASNDRLKPTKWLTATELENVPSLNDITWERLENQPLEQGAKVIEKIYHVGQIKHDLTPSFVPSPSNVPVWIIKSNGQKVECKLNNYVETAKAQPGFGEDEVTIVLTGLPKTSPAQQKAMRRLIQAYVQKYNLQQLQKNAQEQQQQLKSSDYDYTSSEEAADQWKSAKAASGDLIIIDLGSTLTNFKRYAMLDVLNTGAMIGQTLIDLTNKGVPQEIIHLIGQGISAHVAGAAGNKYTAQTGHKLRRITGLDPAKVLSKRPQILGGLSRGDADFVDAIHTSTFAMGTPIRCGDVDFYPNGPSTGVPGSENVIEAVARATRYFAESVRPGSERNFPAVPANSLKQYKEQDGFGKRAYMGLQIDYDLRGDYILEVNAKSPFGQRSPAHKQAAYHGMHHAQN |  | binds weakly
3 | Jaguar (Jar, Myosin VI), Flag-HA C-terminal fusion (BDGP FMO12286) (protein, UniProt Q01989 1-1253) MLEDTQLVWVRDAAEGYIQGRITEIGAKEFEVTPTDRKYPKRTCHFDDIHSSCDGPQDHDDNCELMLLNEATFLDNLKTRYYKDKIYTYVANILIAVNPYREIKELYAPDTIKKYNGRSLGELPPHVFAIADKAIRDMRVYKLSQSIIVSGESGAGKTESTKYLLKYLCYSHDSAGPIETKILDANPVLEAFGNAKTTRNNNSSRFGKFIEVHYDAKCQVVGGYISHYLLEKSRICTQSAEERNYHVFYMLLAGAPQQLRDKLSLGKPDDYRYLSGCTQYFANAKTEQLIPGSQKSKNHQQKGPLKDPIIDDYQHFHNLDKALGRLGLSDTEKLGIYSLVAAVLHLGNIAFEEIPDDVRGGCQVSEASEQSLTITSGLLGVDQTELRTALVSRVMQSKGGGFKGTVIMVPLKIYEASNARDALAKAIYSRLFDRIVGLINQSIPFQASNFYIGVLDIAGFEYFTVNSFEQFCINYCNEKLQKFFNDNILKNEQELYKREGLNVPEITFTDNQDIIELIEAKSNGIFTLLDEESKLPKPSYSHFTAEVHKSWANHYRLGLPRSSRLKAHRTLRDEEGFLVRHFAGAVCYNTEQFIEKNNDALHASLEGLVQECDNPLLQTLFPSGSSTSVRGKLNFISVGSKFKTQLGELMEKLEQNGTNFIRCIKPNSKMIDRQFEGSLALAQLKCSGTISVLELMEHGYPSRVLFADLYSMYKSVLPPELVSLPARTFCEAMFQSLNLSAKDFKFGITKVFFRPGKFVEFDRIMRSDPENMLAIVAKVKKWLIRSRWVKSALGALCVIKLRNRIIYRNKCVLIAQRIARGFLARKQHRPRYQGIGKINKIRTNTLKTIEIASGLKMGREEIISGVNDIYRQIDDAIKKIKMNPRITQREMDSMYTVVMANMNKLTVDLNTKLKEQQQAEEQERLRKIQEALEAERAAKEAEEQRQREEIENKRLKAEMETRRKAAEAQRLRQEEEDRRAALALQEQLEKEAKDDAKYRQQLEQERRDHELALRLANESNGQVEDSPPVIRNGVNDASPMGPNKLIRSENVRAQQQALGKQKYDLSKWKYSELRDAINTSCDIELLEACRQEFHRRLKVYHAWKAKNRKRTTMDENERAPRSVMEAAFKQPPLVQPIQEIVTAQHRYFRIPFMRANAPDNTKRGLWYAHFDGQWIARQMELHADKPPILLVAGTDDMQMCELSLEETGLTRKRGAEILEHEFNREWERNGGKAYKNLGAAKPNGPAAAMQKQQ |  | binds weakly
